Source: PubChem BioAssay AID2685 (National Center for Advancing Translational Sciences (NCATS), 2010)
The other results are listed elsewhere or left out. Further columns of the screen follow, without active or inactive calls. Most of these compounds were active or inconclusive in the main read-out, so they are no random draw. Words in brackets tell the shape of the fitted curve; partial curves, single points and poor fits give uncertain potencies.

Assay: qHTS Assay for Lipid Storage Modulators in Drosophila S3 Cells;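 on cell number change: cells counted by Cell Tracker Red CMTPX staining in the red channel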
Conditions: BODIPY lipid droplet fluorescence, 18-24 h; for cell number change: measured here: cell count max response, cells fed with added oleic acid
Method in brief: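 Laser-scanning cytometry quantifies lipid droplet accumulation (500–530 nm total intensity; droplet/cell object ratio) in oleic acid-fed (400 uM added) Drosophila S3 cells treated with a concentration series. 20 uM Triacsin C defined 100% inhibition.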

[1] = measured here: lipid fluorescence (Fed channel) AC50, cells fed with added oleic acid
[2] = measured here: cell number channel AC50, cells fed with added oleic acid

SMILES | cell number change [%] | AC50 [1] | AC50 [2]
O=C(COc1ccc(Cl)cc1)NCCSCc1cccc(Cl)c1 | 0.454 | 4.61 µM [rising, partial curve, poor fit] | –
CCC(C)Nc1nc2c(c(=O)[nH]c(=O)n2C)n1CCOc1ccccc1 (configuration not stated) | 1.8 | 4.61 µM [falling, full curve] | –
CCOC(=O)CCc1c(C)nc2cc(-c3ccc(Cl)cc3)[nH]n2c1=O | 13.2 | 0.00461 µM [rising, full curve, poor fit] | –
CN(C)S(=O)(=O)N1CCN(S(=O)(=O)c2ccc3ccccc3c2)CC1 | 1.04 | 0.517 µM [rising, full curve, poor fit] | –
Cc1ccc(NC(=O)CN2C(=O)NC3(CCc4ccccc43)C2=O)cc1Cl (configuration not stated) | – | 1.3 µM [falling, full curve, poor fit] | –
Cc1nn(C(C)(C)C)c(NC(=O)c2ccc(Cl)cc2)c1Br | 23.4 | – | –
O=C(Nc1ccc(C(O)(C(F)(F)F)C(F)(F)F)cc1)c1ccc(Cl)c([N+](=O)[O-])c1 | -31.8 | 29.1 µM [falling, single point] | 29.1 µM [falling, single point]
O=C(Cn1nnc(-c2ccc([N+](=O)[O-])cc2)n1)NNC(=O)c1ccccc1 | 22.6 | 0.58 µM [falling, single point] | –
O=C(OCC#CCSc1nnc(-c2ccc(Br)cc2)o1)c1cccs1 | 39.7 | 0.92 µM [rising, full curve, poor fit] | 29.1 µM [rising, single point]
Cc1nnc(SCc2nc3ccccc3s2)n1-c1ccccc1 | 22.3 | 2.59 µM [rising, full curve] | –
Cc1c(Cl)c([N+](=O)[O-])nn1Cc1ccc(C(=O)NN)o1 | 25.5 | 5.8 µM [rising, partial curve] | 0.00651 µM [rising, full curve, poor fit]
O=C(Nc1ccc(N2CCCC2)cc1)c1ccc2ccccc2c1 | 20.4 | 2.31 µM [rising, full curve] | –
Cc1ccccc1NC(=S)NCCc1ccccc1 | 34.7 | – | 3.26 µM [rising, single point]
COC(=O)c1ccc(C)c(NC(=O)COC(=O)C2CC3CCCC(C2)C3=O)c1 (configuration not stated) | 131 | – | 18.4 µM [rising, partial curve]
O=C(CN1C(=O)c2ccccc2C1=O)Nc1cc([N+](=O)[O-])ccc1O | -10.6 | – | –
COc1ccc(CNC(=O)C2CCN(C(=O)Cc3ccccc3)CC2)cc1 | -32.5 | – | 0.13 µM [falling, full curve, poor fit]
O=C(CNS(=O)(=O)c1cccc(C(F)(F)F)c1)Nc1ccccc1F | -66.4 | – | 29.1 µM [falling, single point]
CCN1CCN(CNC(=O)c2cnccn2)CC1 | 6.02 | – | –
CCc1ccc(NC(=O)C2=CC(c3cccs3)=NS(=O)(=O)N2C)cc1 | – | 25.9 µM [falling, single point] | –
CC(NC(=O)Nc1ccc([N+](=O)[O-])cc1)C(c1ccccc1)N1CCOCC1 (configuration not stated) | -5.62 | – | –

Molecules from the list above that contain four or more nitrogen atoms:
SMILES | cell number change [%] | AC50 [1] | AC50 [2]
CCC(C)Nc1nc2c(c(=O)[nH]c(=O)n2C)n1CCOc1ccccc1 (configuration not stated) | 1.8 | 4.61 µM [falling, full curve] | –
O=C(Cn1nnc(-c2ccc([N+](=O)[O-])cc2)n1)NNC(=O)c1ccccc1 | 22.6 | 0.58 µM [falling, single point] | –
Cc1nnc(SCc2nc3ccccc3s2)n1-c1ccccc1 | 22.3 | 2.59 µM [rising, full curve] | –
Cc1c(Cl)c([N+](=O)[O-])nn1Cc1ccc(C(=O)NN)o1 | 25.5 | 5.8 µM [rising, partial curve] | 0.00651 µM [rising, full curve, poor fit]
CCN1CCN(CNC(=O)c2cnccn2)CC1 | 6.02 | – | –
CC(NC(=O)Nc1ccc([N+](=O)[O-])cc1)C(c1ccccc1)N1CCOCC1 (configuration not stated) | -5.62 | – | –

Going on with the list:

SMILES | cell number change [%] | AC50 [1] | AC50 [2]
Cc1c(-n2c(SCC(C)C)nc3ccccc3c2=O)c(=O)n(-c2ccccc2)n1C | -21.9 | 5.17 µM [falling, partial curve, poor fit] | –
O=C(O)c1cc(N/C(=N\S(=O)(=O)c2ccc(F)cc2)c2ccccc2)ccc1O | -3.21 | – | –
COc1ccc(CN(C)CC(O)COc2ccc(-c3ccccc3)cc2)cc1OC (configuration not stated) | 39.7 | – | 25.9 µM [rising, partial curve]
Cc1ccc(-c2[nH]nc3c2C(C)C(C#N)=C(N)O3)cc1 (configuration not stated) | 25.8 | 14.6 µM [rising, partial curve] | –
O=C(N/N=C/c1c(Nc2cccc(C(F)(F)F)c2)nc2ccccn2c1=O)c1ccccc1 | 3.74 | 0.0731 µM [rising, full curve, poor fit] | –
O=C(NNC(=O)c1ccccc1-n1cccc1)c1ccc(Cl)nc1 | 15.4 | 0.82 µM [falling, full curve] | 0.517 µM [falling, full curve]
CC(=O)c1cccc(NC(=O)c2onc(C)c2Cl)c1 | -1.84 | 29.1 µM [rising, single point] | –
CCOC(=O)N1CCC(N2CCN(S(=O)(=O)c3ccc4ccccc4c3)CC2)CC1 | 84.9 | – | 20.6 µM [rising, partial curve]
CC(C)Nc1nc(NC(C)C)nc(N(C)C#N)n1 | 11.9 | 29.1 µM [rising, single point] | 6.51 µM [rising, single point]
CC(C)CNC(=S)N(CCCO)Cc1cc2cc3c(cc2[nH]c1=O)OCCO3 | -3.65 | – | –
O=C(O)C1Cc2ccccc2CN1C(=O)c1ccccc1 (configuration not stated) | -32.1 | 3.26 µM [falling, single point] | 5.8 µM [falling, full curve, poor fit]
O=C(Cc1ccc(Br)cc1)N1CCOCC1 | 36.5 | 29.1 µM [rising, single point] | 23.1 µM [rising, single point]
COc1cccc(CN2CC(C(=O)NCc3cccc(N4CCCC4)c3)CCC2=O)c1 (configuration not stated) | -2.99 | – | –
COc1ccc(S(=O)(=O)NCCC(=O)OCC(=O)c2ccc[nH]2)cc1[N+](=O)[O-] | -5.46 | 29.1 µM [falling, single point] | 0.082 µM [falling, full curve, poor fit]
Cc1ccc(OC(=O)CCC(=O)NC(C)c2ccccc2)cc1 (configuration not stated) | 6.18 | 29.1 µM [rising, single point] | –
CCCN1CCN(C(=O)CCCNC(=O)c2ccc(Cl)cc2)CC1 | – | 29.1 µM [falling, single point] | –
CCN(CC)C(=S)Nc1ccc(Cl)c(Cl)c1 | -33.3 | – | 6.51 µM [falling, single point]
C#Cc1ccc(CN2CCC(Oc3cc(C(=O)NC4CC4)ccc3OC)CC2)cc1 | 16.3 | 29.1 µM [rising, single point] | –
Cc1[nH]nc2c1C(c1ccsc1)C1=C(CC(C)(C)CC1=O)N2 (configuration not stated) | -7.92 | 0.58 µM [falling, partial curve, poor fit] | 0.00461 µM [falling, full curve, poor fit]
